{"source": "patent US20190110993A1", "about": "“Solid Nanoparticle Formulation of Water Insoluble Pharmaceutical Substances with Reduced Ostwald Ripening” (priority 2017, published 2019)", "origin": "cited, not measured here", "conditions": "oral administration; cited from earlier work", "note": "Some of these results come from one statement about several compounds together.", "data": [{"compound": "CC(=O)O[C@@]12CO[C@@H]1C[C@H](O)[C@@]1(C)C(=O)[C@H](O)C3=C(C)[C@@H](OC(=O)[C@H](O)[C@@H](NC(=O)OC(C)(C)C)c4ccccc4)C[C@@](O)([C@@H](OC(=O)c4ccccc4)[C@H]21)C3(C)C", "note": "[docetaxel]", "values": [{"measurement": "absorbed when administered orally", "result": "less than 1%"}]}]}
